Measured values: patent US20120100564A1, “Prediction of Memapsin 2 Cleavage Sites” (priority 2010, published 2012)
At least one peptide structure holds a part that was inferred or is arguable (an end, a ring closure or a residue). Peptide text beside a SMILES is read from it.

Protein sequences, listed by entry. Tags and fused reporters are not part of them. Residues count along the entry.
UniProt P56817, 46-457 limits assumed: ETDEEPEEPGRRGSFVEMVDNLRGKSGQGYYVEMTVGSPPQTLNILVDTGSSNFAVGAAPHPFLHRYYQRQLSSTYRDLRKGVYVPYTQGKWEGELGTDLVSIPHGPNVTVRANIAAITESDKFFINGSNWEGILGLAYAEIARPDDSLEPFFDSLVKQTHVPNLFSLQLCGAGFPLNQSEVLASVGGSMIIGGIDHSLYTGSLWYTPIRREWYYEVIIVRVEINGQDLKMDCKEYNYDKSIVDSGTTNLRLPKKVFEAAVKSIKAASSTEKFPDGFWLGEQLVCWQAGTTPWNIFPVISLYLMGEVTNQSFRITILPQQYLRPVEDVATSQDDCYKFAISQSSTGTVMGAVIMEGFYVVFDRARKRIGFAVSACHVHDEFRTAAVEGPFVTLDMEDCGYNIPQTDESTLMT

Target: T1, human memapsin 2 (Homo sapiens, UniProt P56817)
T1 construct: The ecto-domain of human memapsin 2 was expressed and purified as described previously (Hong et al., 2000); made in house
Test: Determination of kcat/KM of memapsin 2 substrate peptides (steady-state kinetics and competitive hydrolysis, ESI LC/MS)
Assay type: biochemical
Settings: steady-state kinetics, substrate 5 μM to 150 μM, pH 4.0, 37° C.
Excerpt: Materials. α-cyan-4 hydroxycinnamic acid, D0- and D6-form acetic anhydride , N-hydroxysuccinimide were purchased from Sigma. Peptide (Des-Ser1)-Cerebellin was purchased from Bachem (Bubendorf, Switzerland). All peptides derived from memapsin 2 potential substrates were synthesized by GenScript (Piscataway, N.J.). The ecto-domain of human memapsin 2 was expressed and purified as described previously (Hong et al., 2000). Monoclonal anti-memapsin 2 antibody 3E7 was purchased from Santa Cruz Biotechnology Inc (Santa Cruz, Calif.). Monoclonal anti-APP antibody 1560, MAB348 and polyclonal anti-APP antibody 5352 were purchased from Millipore (Billerica, Mass.). Monoclonal anti-actin antibody was purchased from Abcam (Cambridge, Mass.).
Determination of kcat/KM of different memapsin 2's substrates. […] Initial velocity was determined by ESI LC/MS, in which the product an substrate peak areas were quantitated. The kinetic parameters, kcat and KM were determined from non-linear regression using Grafit software (Surrey, UK). […] Relative kcat/KM of different substrates were determined by comparing the initial hydrolysis rates to that of VGSC beta 2.
Comparison of the kinetics for peptides derived from memapsin 2 protein substrates. […] The relative kcat/KM values of other twelve peptides were determined from their relative pseudo-first-order hydrolytic rates. […]

## CC[C@H](C)[C@H](NC(=O)[C@H](CCCCN)NC(=O)CNC(=O)[C@H](Cc1c[nH]cn1)NC(=O)CNC(=O)[C@@H](N)CCCNC(=N)N)C(=O)N[C@@H](Cc1ccc(O)cc1)C(=O)N[C@@H](CC(C)C)C(=O)N[C@@H](CCC(N)=O)C(=O)N[C@H](C(=O)N[C@@H](CC(C)C)C(=O)N[C@@H](CC(C)C)C(=O)O)C(C)C [VGSC-β2] (H-RGHGKIYLQVLL-OH)
  kcat: 0.00875 s⁻¹
